Binding data for 2 molecules are collected here from paper PMC11952481.

The chains behind the UniProt entries cited, without tags or fusion partners.
UniProt P52480: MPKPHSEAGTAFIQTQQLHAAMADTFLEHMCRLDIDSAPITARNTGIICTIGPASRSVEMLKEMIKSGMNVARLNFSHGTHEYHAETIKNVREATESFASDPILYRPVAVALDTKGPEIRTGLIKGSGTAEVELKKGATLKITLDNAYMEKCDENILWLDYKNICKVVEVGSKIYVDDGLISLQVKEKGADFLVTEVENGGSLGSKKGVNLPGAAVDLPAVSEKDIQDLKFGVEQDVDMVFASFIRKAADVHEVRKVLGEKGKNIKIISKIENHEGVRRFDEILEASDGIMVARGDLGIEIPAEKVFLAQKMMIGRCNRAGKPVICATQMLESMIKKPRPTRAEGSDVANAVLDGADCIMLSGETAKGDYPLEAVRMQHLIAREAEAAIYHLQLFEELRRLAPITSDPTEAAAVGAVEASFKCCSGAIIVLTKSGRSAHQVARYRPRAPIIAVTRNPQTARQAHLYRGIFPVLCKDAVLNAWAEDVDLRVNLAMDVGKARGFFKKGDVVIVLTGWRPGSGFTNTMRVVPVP

These are yes or no findings as the source states them, for the method shown. In cells and extracts the contact can be indirect. These calls come from enrichment with a bait or labelling near it, and not all partners need be listed.

For the test, the target named is T1, SNO-CoA Reductase 2 (SCoR2; product of the Akr1a1 gene) (mouse (endogenous in mouse heart)) (UniProt Q9JII6).
T1 sequence: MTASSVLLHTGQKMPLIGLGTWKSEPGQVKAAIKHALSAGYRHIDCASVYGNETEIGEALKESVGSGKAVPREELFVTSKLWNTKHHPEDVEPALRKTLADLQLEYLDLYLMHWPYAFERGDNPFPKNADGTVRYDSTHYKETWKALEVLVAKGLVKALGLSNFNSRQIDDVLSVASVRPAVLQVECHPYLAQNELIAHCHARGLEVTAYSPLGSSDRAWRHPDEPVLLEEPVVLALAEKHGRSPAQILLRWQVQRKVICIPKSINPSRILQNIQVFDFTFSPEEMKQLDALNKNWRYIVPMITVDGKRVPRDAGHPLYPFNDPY
The experiment in a line: affinity purification with mass spectrometry; co-immunoprecipitation with 10 ug anti-SCoR2/Akr1a1 antibody (15054-1-AP, Proteintech) from untreated wild type mouse heart lysate in non-denaturing lysis buffer (20mM Tris-HCl pH 8.0, 137mM NaCl, 1% NP-40, 2mM EDTA), 2 hours at room temperature, protein A/G magnetic beads, elution with 0.1M glycine pH 2.0, LC-MS/MS.

As for “pyruvate kinase M2 (PKM2) (from UniProt P52480 1-531) (enzyme)”, the binding result is given as “binds”.

B1: β-hydroxybutyrate dehydrogenase (BDH1) (enzyme, UniProt Q80XN0 47-343)
chain: ASQADAASGKAILITGCDSGFGFSLAKHLHSKGFLVFAGCLMKDKGDAGVKELDSLKSDRLRTIQLNVCNSEEVEKAVETIRSGLKDPEKGMWGLVNNAGISTFGEVEFTSMETYKEVAEVNLWGTVRTTKSFLPLLRRAKGRVVNISSMLGRMANPARSPYCITKFGIEAFSDCLRYEMHPLGVKVSVVEPGNFIAATSLYSPERIQAIAKKMWDDLPEVVRKDYGRKYFDEKIAKMETYCNSGSTDTSSVINAVTHALTAATPYTRYHPMDYYWWLRMQIMTHFPGAISDKIYIH
B1: the binding result is on record as “binds”.
